No constants are given. Whether binding was seen depends on the method and setting. Binding seen in cells or lysates may run through a third protein. These calls come from enrichment with a bait or labelling near it, and not all partners need be listed. Tags and fused reporters may be left off the sequences shown.

Protein sequences, listed by entry. Tags and fused reporters are not part of them.
UniProt P78527: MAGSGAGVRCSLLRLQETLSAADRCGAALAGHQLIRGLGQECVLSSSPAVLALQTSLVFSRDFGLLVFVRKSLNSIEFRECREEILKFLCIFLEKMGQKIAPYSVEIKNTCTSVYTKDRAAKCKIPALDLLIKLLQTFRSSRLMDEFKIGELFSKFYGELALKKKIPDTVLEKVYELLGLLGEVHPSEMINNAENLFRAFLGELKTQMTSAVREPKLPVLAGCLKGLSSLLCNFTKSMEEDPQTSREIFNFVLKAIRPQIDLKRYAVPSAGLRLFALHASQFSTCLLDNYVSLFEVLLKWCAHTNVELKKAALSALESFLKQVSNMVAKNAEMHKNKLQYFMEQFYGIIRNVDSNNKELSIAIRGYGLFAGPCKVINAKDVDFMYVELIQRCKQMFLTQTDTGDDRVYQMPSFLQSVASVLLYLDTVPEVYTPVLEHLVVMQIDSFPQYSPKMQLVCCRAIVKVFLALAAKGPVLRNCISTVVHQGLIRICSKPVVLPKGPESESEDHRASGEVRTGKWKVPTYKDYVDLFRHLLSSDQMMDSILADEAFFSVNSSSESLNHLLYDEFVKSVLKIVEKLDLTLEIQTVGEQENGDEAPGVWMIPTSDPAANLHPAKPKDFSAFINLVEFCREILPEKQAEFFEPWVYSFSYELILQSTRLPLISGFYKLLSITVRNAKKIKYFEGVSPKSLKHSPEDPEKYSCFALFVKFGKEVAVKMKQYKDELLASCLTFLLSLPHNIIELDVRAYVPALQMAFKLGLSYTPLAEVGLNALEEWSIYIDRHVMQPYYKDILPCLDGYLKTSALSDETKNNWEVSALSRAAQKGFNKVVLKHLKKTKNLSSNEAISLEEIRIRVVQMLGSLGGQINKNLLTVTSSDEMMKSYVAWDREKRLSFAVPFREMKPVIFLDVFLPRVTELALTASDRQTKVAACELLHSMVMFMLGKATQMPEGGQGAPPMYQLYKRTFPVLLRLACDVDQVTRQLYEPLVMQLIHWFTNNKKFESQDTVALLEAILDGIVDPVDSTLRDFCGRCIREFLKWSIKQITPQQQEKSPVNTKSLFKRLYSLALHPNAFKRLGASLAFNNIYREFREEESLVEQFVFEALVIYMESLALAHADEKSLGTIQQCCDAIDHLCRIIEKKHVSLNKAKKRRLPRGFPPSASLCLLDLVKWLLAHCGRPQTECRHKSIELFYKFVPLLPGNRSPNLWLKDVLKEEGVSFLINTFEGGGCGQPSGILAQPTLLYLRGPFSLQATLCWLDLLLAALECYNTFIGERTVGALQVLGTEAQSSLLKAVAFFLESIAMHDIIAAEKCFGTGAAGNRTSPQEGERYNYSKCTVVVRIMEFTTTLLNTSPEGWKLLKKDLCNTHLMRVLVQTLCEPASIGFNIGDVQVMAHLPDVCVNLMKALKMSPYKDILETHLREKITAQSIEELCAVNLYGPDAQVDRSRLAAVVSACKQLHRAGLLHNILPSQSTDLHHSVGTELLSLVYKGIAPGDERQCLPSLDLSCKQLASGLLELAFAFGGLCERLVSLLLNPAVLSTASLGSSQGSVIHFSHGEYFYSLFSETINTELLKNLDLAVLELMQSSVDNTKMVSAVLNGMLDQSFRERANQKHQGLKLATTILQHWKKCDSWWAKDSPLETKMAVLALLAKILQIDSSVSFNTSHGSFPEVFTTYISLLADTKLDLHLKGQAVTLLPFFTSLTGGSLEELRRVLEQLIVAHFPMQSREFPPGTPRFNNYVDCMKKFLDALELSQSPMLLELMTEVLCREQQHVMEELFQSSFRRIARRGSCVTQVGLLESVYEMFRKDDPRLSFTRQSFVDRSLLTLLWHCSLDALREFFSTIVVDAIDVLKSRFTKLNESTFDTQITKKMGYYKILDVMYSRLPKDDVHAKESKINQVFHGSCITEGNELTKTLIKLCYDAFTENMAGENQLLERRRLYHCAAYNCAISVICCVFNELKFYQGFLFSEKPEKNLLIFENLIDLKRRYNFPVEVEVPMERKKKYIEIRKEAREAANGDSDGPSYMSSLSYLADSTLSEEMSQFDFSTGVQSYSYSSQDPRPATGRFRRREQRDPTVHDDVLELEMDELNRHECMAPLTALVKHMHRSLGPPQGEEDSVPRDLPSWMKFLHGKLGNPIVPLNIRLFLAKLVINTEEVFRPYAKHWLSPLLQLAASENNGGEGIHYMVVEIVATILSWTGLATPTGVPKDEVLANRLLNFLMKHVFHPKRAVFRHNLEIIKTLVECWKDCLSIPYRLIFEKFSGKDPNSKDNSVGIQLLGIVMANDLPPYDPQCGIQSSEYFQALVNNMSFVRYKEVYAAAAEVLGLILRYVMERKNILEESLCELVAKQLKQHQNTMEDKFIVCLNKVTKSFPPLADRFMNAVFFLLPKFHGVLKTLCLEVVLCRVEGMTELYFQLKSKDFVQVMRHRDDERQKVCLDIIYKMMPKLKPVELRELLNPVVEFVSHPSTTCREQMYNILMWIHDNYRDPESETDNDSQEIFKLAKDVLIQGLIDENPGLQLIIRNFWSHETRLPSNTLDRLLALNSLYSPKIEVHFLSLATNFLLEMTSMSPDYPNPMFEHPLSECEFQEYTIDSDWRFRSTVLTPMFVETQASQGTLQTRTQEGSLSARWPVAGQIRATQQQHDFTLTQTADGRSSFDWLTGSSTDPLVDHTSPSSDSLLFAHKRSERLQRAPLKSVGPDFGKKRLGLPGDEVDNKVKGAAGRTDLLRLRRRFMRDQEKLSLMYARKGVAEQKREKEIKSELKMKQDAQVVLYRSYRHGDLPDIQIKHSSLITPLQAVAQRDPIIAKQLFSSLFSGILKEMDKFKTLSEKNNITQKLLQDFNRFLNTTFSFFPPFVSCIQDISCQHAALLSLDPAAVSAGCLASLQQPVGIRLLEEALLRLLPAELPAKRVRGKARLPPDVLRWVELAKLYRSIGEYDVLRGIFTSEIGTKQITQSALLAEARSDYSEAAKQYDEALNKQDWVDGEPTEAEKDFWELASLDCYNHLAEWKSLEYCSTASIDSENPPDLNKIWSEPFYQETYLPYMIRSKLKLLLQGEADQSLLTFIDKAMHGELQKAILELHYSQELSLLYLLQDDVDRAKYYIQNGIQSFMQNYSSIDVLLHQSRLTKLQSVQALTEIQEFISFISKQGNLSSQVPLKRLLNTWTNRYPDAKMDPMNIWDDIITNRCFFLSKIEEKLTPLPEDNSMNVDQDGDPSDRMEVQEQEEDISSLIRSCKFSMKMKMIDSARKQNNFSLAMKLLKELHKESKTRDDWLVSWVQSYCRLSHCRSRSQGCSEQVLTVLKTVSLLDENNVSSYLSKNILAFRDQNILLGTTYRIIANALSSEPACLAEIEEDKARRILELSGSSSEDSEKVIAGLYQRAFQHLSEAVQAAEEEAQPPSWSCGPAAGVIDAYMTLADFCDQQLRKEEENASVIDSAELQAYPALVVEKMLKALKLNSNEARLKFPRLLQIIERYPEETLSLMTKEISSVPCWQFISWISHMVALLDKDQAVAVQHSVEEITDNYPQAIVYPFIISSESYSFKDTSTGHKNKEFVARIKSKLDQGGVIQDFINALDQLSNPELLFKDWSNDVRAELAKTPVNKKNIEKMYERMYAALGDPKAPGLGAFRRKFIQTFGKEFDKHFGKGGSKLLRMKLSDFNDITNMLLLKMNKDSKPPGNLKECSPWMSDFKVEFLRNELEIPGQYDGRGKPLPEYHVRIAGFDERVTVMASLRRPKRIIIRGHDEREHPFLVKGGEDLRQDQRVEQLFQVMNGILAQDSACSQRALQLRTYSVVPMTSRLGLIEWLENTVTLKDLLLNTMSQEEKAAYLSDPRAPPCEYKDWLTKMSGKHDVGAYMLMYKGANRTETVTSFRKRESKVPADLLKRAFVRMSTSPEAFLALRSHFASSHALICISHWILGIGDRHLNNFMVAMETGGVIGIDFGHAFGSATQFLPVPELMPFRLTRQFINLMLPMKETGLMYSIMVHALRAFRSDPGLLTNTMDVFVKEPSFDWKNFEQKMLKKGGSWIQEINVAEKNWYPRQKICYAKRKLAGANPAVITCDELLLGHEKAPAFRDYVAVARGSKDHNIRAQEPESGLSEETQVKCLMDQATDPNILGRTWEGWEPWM
UniProt Q93009: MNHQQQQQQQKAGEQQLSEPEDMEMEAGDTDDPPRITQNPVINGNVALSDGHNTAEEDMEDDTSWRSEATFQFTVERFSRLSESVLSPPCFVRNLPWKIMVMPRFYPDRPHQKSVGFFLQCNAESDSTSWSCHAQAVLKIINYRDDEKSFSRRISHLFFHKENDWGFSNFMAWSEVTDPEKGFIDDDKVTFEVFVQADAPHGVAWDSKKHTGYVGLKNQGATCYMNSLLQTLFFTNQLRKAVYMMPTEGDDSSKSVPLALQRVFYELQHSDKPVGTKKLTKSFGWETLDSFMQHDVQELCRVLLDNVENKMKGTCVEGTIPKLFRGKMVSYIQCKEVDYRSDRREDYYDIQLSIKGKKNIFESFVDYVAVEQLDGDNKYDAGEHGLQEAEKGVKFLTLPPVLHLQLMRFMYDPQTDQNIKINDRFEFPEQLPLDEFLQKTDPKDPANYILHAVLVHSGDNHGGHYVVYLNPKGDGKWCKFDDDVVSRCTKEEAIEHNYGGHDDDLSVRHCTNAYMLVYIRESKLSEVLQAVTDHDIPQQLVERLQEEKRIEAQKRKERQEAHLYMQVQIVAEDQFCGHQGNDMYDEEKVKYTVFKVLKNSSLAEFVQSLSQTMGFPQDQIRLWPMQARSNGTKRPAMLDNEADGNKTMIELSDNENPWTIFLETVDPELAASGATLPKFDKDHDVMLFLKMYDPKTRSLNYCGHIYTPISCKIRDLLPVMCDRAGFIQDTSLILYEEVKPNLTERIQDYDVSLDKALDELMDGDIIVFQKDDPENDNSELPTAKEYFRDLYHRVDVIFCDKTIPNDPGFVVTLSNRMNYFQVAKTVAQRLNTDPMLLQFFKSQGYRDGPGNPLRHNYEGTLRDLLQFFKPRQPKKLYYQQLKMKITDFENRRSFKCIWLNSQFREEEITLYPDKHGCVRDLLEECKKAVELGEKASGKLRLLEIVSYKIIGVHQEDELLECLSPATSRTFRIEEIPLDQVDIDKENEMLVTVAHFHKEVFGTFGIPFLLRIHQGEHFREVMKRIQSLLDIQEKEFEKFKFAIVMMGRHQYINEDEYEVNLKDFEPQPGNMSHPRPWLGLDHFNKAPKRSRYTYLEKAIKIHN

Experiment [1] deals with T1, FLAG-Cry2 (pcDNA3-2xFlag-mCRY2) (mouse) (UniProt Q9R194).
T1 sequence: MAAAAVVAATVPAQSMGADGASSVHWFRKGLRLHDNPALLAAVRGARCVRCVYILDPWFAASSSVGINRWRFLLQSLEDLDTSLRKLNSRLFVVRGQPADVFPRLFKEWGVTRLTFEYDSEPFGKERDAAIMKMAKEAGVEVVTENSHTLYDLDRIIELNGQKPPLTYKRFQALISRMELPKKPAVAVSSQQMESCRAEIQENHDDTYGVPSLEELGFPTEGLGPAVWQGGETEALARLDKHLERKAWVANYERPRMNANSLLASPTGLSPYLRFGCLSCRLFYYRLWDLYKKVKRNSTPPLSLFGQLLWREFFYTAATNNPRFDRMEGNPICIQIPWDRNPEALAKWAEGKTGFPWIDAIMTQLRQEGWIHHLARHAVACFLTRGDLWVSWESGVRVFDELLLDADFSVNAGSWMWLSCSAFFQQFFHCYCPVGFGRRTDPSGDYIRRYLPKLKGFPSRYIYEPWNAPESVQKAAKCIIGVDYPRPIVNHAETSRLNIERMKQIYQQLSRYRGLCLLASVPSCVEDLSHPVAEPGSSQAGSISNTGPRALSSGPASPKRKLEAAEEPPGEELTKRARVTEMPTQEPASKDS
Briefly: affinity purification with mass spectrometry; IP of the FLAG tag from lysates of 293T cells expressing pcDNA3-2xFLAG empty, Cry1 or Cry2, with or without co-expressed Per2; MudPIT LC-MS/MS, triplicate, enriched partners by PatternLab.

Experiment [2] concerns the target T2, FLAG-Cry1 (pcDNA3-2xFlag-mCRY1) (mouse) (UniProt P97784).
T2 sequence: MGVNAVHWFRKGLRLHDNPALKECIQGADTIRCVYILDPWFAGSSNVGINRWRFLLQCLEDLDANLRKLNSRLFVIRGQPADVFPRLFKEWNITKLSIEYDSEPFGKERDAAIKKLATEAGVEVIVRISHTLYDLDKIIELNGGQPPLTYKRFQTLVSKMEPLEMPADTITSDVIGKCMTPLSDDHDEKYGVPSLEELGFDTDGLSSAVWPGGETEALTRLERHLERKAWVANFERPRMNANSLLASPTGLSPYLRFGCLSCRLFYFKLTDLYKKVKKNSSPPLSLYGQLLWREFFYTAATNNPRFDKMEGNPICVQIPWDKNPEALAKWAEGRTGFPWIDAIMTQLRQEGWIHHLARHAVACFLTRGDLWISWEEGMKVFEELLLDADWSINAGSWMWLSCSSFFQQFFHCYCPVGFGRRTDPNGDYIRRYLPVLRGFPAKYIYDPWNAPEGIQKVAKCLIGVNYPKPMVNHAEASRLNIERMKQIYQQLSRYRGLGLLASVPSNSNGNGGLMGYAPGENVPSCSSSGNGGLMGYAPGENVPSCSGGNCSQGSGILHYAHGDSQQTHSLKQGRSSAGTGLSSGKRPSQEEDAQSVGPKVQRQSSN
The description is as above.

Take “DNA-PKcs, endogenous in 293T cells (from UniProt P78527 1-4128) (enzyme)”: the binding result in experiment [1] and in experiment [2] was “binds” throughout.

As to “Herpes virus associated ubiquitin-specific protease (Hausp), endogenous in 293T cells (from UniProt Q93009 1-1102) (enzyme)”, the binding result in experiment [2] is “binds”.

These data come from paper PMC4352707.
